Three substances from PMC10791687, “The Piezo channel is a mechano-sensitive complex component in the mammalian inner ear hair cell” (Nature Communications, 2024) can be followed below.

Amino acid sequences for entries named in this document (tags omitted).
UniProt E2JF22: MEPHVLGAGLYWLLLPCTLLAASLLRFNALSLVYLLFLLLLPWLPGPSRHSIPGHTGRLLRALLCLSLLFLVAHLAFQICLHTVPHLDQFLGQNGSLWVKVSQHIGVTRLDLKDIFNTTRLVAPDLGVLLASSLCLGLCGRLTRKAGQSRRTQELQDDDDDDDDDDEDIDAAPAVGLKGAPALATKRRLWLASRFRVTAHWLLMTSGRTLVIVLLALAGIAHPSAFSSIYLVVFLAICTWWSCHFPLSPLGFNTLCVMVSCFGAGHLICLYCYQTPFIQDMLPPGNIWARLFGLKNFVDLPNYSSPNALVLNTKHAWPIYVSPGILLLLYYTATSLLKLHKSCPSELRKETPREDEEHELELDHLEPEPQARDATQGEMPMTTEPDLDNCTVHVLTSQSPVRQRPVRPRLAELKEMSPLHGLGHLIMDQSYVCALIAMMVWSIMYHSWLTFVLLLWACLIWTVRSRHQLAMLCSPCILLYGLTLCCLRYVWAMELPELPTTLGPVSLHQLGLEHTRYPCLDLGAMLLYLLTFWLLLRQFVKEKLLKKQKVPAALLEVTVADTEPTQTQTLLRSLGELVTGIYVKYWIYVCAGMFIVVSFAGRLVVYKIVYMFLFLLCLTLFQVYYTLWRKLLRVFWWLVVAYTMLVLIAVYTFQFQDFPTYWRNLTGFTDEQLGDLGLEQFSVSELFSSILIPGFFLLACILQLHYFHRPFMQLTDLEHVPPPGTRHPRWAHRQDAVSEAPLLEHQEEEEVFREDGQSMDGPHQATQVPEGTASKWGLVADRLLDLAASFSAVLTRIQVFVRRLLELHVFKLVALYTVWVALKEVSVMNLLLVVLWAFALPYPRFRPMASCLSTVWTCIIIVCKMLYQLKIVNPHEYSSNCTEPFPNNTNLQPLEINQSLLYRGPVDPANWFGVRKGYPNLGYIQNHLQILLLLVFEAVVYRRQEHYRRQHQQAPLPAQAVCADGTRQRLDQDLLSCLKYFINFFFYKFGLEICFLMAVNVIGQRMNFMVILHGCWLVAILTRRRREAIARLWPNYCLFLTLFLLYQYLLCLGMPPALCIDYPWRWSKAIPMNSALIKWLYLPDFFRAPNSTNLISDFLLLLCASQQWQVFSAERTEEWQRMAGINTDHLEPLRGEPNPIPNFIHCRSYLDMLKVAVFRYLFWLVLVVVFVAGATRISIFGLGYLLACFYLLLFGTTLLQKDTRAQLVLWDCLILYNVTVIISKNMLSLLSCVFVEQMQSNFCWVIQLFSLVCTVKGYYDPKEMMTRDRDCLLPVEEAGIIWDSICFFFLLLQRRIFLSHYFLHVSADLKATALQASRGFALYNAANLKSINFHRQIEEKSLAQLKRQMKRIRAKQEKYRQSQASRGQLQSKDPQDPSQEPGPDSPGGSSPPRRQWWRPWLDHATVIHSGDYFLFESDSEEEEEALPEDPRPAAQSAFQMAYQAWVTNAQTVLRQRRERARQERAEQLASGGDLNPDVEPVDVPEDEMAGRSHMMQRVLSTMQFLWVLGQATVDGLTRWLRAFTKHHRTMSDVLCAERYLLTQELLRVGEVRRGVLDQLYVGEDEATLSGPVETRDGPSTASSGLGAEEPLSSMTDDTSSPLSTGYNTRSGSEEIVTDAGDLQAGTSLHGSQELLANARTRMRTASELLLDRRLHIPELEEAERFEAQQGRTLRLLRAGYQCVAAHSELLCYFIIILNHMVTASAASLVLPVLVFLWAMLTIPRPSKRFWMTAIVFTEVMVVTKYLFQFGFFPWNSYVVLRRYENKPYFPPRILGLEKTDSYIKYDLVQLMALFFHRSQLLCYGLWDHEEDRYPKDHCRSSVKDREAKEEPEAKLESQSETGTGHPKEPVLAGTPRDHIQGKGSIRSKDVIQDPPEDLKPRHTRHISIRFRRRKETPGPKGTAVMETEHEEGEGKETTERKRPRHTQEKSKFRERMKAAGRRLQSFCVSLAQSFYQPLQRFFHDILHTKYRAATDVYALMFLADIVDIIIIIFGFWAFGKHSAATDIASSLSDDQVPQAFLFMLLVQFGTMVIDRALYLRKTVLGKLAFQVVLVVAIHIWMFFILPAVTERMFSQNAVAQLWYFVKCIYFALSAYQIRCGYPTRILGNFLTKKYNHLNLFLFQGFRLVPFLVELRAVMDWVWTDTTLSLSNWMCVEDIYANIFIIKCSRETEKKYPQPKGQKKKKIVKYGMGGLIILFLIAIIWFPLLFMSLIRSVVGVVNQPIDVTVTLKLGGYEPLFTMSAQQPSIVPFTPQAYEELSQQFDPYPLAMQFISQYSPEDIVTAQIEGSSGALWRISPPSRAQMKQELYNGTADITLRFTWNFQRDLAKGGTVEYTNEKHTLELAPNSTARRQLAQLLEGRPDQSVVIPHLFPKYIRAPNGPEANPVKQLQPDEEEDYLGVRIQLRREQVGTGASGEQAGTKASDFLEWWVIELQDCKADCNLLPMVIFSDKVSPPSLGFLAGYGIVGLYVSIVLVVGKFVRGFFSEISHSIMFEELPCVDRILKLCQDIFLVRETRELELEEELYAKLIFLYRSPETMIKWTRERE
UniProt Q92508: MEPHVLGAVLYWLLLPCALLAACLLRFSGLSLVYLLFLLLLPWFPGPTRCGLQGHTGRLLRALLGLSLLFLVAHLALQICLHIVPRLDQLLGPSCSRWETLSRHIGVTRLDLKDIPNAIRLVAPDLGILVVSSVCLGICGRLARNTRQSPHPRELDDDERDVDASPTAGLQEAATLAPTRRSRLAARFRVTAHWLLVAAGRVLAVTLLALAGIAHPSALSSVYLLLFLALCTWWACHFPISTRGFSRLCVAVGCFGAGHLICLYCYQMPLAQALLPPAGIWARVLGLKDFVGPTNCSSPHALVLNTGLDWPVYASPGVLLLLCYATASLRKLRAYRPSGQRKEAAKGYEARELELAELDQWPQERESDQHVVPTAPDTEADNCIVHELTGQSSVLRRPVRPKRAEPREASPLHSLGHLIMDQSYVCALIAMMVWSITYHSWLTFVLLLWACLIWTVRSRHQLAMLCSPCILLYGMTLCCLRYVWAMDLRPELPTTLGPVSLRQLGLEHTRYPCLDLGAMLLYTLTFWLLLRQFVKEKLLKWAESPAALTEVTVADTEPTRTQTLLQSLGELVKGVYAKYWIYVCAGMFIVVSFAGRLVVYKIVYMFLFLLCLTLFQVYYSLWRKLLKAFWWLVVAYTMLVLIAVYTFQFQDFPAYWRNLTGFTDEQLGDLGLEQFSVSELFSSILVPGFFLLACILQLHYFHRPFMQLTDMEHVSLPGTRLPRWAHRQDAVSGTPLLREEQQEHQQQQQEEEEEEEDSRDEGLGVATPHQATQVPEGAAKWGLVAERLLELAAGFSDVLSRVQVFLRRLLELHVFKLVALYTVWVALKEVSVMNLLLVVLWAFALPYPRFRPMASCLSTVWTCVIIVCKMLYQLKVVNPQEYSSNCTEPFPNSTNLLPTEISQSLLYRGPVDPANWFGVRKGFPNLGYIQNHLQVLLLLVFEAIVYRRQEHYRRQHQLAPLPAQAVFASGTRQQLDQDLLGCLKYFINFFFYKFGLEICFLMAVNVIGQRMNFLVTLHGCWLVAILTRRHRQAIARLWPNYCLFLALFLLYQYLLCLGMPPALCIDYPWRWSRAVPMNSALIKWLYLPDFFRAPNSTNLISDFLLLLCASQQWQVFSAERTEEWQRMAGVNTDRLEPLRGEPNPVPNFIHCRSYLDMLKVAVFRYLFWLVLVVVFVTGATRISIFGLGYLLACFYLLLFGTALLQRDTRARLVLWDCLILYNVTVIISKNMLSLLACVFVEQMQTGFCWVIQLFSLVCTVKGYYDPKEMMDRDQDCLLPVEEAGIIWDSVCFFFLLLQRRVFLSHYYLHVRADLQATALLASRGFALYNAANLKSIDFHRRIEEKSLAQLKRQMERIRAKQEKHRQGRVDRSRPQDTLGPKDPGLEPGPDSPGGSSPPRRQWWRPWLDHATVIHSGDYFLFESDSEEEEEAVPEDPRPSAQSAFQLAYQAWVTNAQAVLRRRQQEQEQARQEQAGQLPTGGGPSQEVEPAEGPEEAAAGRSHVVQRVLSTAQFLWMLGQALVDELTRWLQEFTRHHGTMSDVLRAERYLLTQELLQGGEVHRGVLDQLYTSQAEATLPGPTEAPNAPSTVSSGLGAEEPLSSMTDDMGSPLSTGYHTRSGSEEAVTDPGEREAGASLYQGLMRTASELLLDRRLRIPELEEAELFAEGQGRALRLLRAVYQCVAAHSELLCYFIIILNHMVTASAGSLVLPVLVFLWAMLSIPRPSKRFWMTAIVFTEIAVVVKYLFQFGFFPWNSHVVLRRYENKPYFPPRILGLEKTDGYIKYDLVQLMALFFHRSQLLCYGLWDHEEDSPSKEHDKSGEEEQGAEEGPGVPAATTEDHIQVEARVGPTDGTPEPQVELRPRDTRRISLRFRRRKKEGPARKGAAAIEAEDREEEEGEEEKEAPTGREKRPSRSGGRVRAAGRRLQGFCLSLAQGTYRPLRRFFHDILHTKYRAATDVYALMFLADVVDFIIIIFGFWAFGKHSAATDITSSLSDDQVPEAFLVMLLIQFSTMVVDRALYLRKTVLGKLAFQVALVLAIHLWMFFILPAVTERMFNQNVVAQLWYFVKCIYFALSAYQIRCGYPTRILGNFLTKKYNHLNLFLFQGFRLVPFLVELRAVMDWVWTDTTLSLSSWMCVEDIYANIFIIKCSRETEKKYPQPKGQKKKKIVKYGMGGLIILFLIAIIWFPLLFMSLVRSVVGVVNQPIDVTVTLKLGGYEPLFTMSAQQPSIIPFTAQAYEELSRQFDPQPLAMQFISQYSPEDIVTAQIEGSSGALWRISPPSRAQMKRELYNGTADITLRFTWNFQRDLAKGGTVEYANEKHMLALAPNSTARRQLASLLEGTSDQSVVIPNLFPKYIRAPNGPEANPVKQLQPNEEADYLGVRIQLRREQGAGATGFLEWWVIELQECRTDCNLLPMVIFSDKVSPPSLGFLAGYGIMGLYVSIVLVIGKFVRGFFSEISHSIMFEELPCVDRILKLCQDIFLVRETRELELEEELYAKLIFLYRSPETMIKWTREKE

Test [1] has as its target T1, V5-tagged mouse Cib2 expressed in HEK 293 cells (mouse) (UniProt Q9Z309).
T1 sequence: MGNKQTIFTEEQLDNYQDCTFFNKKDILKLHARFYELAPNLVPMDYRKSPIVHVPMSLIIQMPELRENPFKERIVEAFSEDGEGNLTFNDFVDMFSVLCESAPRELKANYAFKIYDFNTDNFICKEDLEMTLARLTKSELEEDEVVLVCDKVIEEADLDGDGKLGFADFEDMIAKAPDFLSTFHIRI
Kind of test: co-IP; HEK 293 cells transiently co-transfected with Flag-mPz1 and one tagged partner; IP lysis buffer, antibody on Dynabeads Protein G, 20 min at RT; IP with anti-FLAG, anti-mCherry, anti-His, anti-Myc, anti-HA or anti-V5, Western blot with the tag antibodies.

The target of test [2] is HA-tagged mouse protocadherin15 expressed in HEK 293 cells (mouse) (UniProt Q99PJ1). Described as above.
Test [3] addresses T2, mCherry-tagged mouse Tmc1 expressed in HEK 293 cells (mouse) (UniProt Q8R4P5).
T2 sequence: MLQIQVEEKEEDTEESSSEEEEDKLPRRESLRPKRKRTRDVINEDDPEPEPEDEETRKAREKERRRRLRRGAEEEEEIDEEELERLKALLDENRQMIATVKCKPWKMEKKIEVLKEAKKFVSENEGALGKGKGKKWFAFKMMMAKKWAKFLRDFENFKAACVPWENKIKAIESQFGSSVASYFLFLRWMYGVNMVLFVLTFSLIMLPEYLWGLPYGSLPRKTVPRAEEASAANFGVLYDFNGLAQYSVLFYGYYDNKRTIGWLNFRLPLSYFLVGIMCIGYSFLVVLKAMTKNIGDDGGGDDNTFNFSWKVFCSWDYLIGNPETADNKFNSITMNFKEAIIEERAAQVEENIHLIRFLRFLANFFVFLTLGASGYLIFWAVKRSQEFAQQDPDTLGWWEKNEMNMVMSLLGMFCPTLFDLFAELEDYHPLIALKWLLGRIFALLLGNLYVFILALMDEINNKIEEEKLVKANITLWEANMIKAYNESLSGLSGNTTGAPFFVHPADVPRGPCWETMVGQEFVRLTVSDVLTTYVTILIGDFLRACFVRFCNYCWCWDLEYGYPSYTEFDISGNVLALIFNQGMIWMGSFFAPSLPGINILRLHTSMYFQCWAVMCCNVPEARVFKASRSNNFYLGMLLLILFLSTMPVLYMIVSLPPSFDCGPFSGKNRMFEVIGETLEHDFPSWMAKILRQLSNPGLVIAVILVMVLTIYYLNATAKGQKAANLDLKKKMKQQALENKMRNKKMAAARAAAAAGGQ
The description is as above.

In test [4] the target is T3, His-tagged mouse Tmie expressed in HEK 293 cells (mouse) (UniProt Q8K467).
T3 sequence: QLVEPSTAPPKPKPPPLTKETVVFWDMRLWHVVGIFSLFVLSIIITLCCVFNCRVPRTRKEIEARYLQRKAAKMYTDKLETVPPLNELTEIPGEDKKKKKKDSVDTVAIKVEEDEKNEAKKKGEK
Described as above.

Test [5] concerns the target T4, mCherry-tagged mouse Tmc2 expressed in HEK 293 cells (mouse) (UniProt Q8R4P4).
T4 sequence: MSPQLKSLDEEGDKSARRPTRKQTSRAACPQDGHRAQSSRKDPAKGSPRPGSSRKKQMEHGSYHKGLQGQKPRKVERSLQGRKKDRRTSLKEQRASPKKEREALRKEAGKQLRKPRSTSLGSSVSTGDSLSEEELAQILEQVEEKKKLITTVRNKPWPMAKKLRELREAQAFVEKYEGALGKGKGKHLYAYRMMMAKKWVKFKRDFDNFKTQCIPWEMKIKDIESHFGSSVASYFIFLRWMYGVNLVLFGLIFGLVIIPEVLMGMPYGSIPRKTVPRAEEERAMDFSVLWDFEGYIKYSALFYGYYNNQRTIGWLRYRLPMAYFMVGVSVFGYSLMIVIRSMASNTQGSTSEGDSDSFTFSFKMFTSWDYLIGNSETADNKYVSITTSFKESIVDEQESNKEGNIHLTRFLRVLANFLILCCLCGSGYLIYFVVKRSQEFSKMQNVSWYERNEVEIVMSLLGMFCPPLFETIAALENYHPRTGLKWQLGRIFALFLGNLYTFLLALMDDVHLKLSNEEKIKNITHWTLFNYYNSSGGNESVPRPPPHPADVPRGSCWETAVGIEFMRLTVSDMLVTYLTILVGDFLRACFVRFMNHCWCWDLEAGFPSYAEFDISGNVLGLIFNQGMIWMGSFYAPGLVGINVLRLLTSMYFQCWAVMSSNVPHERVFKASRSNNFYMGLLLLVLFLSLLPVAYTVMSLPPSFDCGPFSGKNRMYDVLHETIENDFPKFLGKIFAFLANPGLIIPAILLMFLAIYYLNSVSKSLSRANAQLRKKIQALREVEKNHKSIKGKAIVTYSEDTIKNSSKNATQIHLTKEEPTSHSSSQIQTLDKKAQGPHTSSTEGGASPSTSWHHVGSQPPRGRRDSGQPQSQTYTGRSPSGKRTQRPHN
Described as above.

Test [6] deals with T5, Tmc2-AcGFP fusion protein, transgenic mouse (mouse) (UniProt Q8R4P4).
T5 sequence: T4 sequence
Briefly: co-IP; cochlear tissue of Tmc2-AcGFP: Pz1-tdT and Tmc1-mCherry: Pz2-GFP mice homogenized in Pierce IP lysis buffer; lysate with GFP-antibody at 4 °C overnight, Dynabeads Protein G; immunoblot with anti-tdTomato or anti-mCherry; negative controls from non-transgenic cochlear tissue. On the technique in general: A western blot detects proteins with antibodies after separation by electrophoresis.

In test [7] the target is T2, mCherry-tagged mouse Tmc1 expressed in HEK 293 cells (mouse). Briefly: co-IP; HEK 293 cells transiently transfected with mCherry-Tmc1 or mCherry-Tmc2; endogenous Pz1 in the precipitate detected with anti-mPz1.
Test [8] deals with T4, mCherry-tagged mouse Tmc2 expressed in HEK 293 cells (mouse). The test is described as above.

Results are given in words; binding and its absence hold for the method and conditions named. Binding seen in cells or lysates may run through a third protein. Some results given as binding are weak or reduced against the parent protein; the word gives no strength. For some assays here: Tags and fused reporters may be left off the sequences shown.

“FLAG-tagged mouse Piezo1 expressed in HEK 293 cells (from UniProt E2JF22 1-2547)”: the binding entry in test [1], in test [2], in test [3], in test [4] and in test [5] was “binds” in each case.
“Piezo1-tdTomato fusion protein (Pz1-tdT), knock-in mouse (from UniProt E2JF22 1-2547)”: in test [6], the binding entry is on record as “binds”.
“Pz1 endogenously expressed in HEK 293 cells (from UniProt Q92508 1-2521)”: the binding result in test [7] and in test [8] was “binds” throughout.
